In patent publication US10562839B2, “Medium chain fatty acid esters of β-hydroxybutyrate and butanediol and compositions and methods for using same” (The J. David Gladstone Institutes, priority 2016, dated 2020):

Experiments:
Format in all cases: in vivo, C57BL/6 male mice
[1] = Pilot feeding study, food supplemented with esters of β-hydroxybutyrate and butanediol; settings: 10% w/w in ground normal chow
Source text: Different esters of β-hydroxybutyrate and butanediol were synthesized as described above and purified for testing in mice. The esters of β-hydroxybutyrate and butanediol that were supplemented into the diet of the mice in this study were as follows: 1) C8 diesters of butanediol (C8x2-BD); 2) C8 monoesters of β-hydroxybutyrate (C8-BHB); 3) C6 diesters of β-hydroxybutyrate (C6x2-BHB); 4) C6 monoesters of β-hydroxybutyrate (C6-BHB); and 5) C6 diesters of butanediol (C6x2-BD). Food compositions supplemented with 1,3-butanediol were also tested. Compounds were mixed at 10% w/w in ground normal chow (20% calories from protein) to match standard vivarium feed. The food was provided in a glass jar inside the animal cage. n=2 mice/condition, 18 mice total. All mice were 12 month-old C57BL/6 males. Mice were placed in individual cages to record food intake more precisely. Food was switched back to normal chow at 72 hrs (ground and in a glass jar).

[2] = Pilot feeding study, food supplemented with C6 monoester of β-hydroxybutyrate
Experimental: C6 monoester of β-hydroxybutyrate was synthesized as described above and purified for testing in mice. The C6 monoester of β-hydroxybutyrate was mixed into ground control food (10% calories from protein), the same control diet used in the above examples involving ketogenic and control diet. The food was placed in a glass jar inside the animal cage at the start of the nighttime feeding cycle, 19:00 h. Different concentrations of the C6 monoester of β-hydroxybutyrate (w/w) were mixed into the control diet to determine which concentration was sufficient to raise BHB levels in the mice. n=4 mice/condition (2 mice per cage). All mice were 12 month-old C57BL/6 males.

[3] = Feeding study, food supplemented with C6 diesters of β-hydroxybutyrate; settings: 10% w/w in re-pelleted standard chow
Source text: Based on the results of the above Pilot studies, the C6 diesters of β-hydroxybutyrate were selected for a longer study with a greater number of mice to see if it would remain ketogenic even after food intake normalized. C6 diesters of β-hydroxybutyrate were synthesized as described above and purified for testing in mice. The C6 diesters of β-hydroxybutyrate were mixed at 10% w/w into ground standard chow diet (20% calories from protein), which was re-formed into pellets. Re-pelleted food was used to minimize any variable effects from a change in diet texture to ground.
The pelleted food was consumed by the mice after being placed in a glass jar in the animal cage. Four mice per diet were tested, with the mice individually caged. All mice were 12 month-old C57BL/6 males. Daily weight and caloric intake was monitored and blood was drawn for glucose and β-hydroxybutyrate levels on the eighth night. […] By the 7th night, the weights of the mice stabilized and 24 hour caloric intake was similar between the control diet and the mice that consumed food supplemented with C6 esters of β-hydroxybutyrate.

CCCCCC(=O)O[C@H](C)CC(=O)OCC [C6-BHB]
weight loss [1]: significant weight loss | weight change ([2]; 2.5% and 5% by weight in food, normal amount of food ingested): weight loss | amount of food consumed over the first 12 hours relative to control ([2]; 5% by weight in control food): did not change the amount of food consumed | food intake ([2]; 10% and 20% by weight in control food): less palatable to the mice and was ingested at a lower rate | blood glucose over the first 12 hours ([2]; 10% and 20% by weight in food, attributed to fasting): decreasing blood glucose | blood glucose levels ([2]; different amounts in food, normal range min.=70 mg/dL, max=180 mg/dL): within the normal range of glycaemia

CCCCCC(=O)OCCC(C)OC(=O)CCCCC (stereo not shown) [C6x2-BD]
weight loss [1]: significant weight loss

CCCCCCOC(=O)C[C@@H](C)OC(=O)CCCCC [C6x2-BHB]
weight loss [1]: significant weight loss | 24 hour caloric intake by the 7th night, versus control diet [3]: similar | food intake and weight, initial [3]: initially ate less food and lost weight | weights of the mice by the 7th night [3]: stabilized

CCCCCCCC(=O)OCCC(C)OC(=O)CCCCCCC (stereo not shown) [C8x2-BD]
weight loss [1]: lost approximately the same amount of weight as those consuming the control food composition

CCCCCCCC(=O)O[C@H](C)CC(=O)OCC [C8-BHB]
weight loss [1]: significant weight loss
